Data from article PMC8191802.

T1: FLAG-tagged YbeY (human) (UniProt P58557)
T1 sequence: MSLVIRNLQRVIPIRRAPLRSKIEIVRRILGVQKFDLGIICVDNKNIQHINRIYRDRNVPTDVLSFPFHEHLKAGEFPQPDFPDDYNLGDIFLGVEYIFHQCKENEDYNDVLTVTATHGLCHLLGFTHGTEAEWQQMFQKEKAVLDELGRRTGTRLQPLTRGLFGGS

T2: FLAG-tagged YbeY (human), P58557
T2 chain: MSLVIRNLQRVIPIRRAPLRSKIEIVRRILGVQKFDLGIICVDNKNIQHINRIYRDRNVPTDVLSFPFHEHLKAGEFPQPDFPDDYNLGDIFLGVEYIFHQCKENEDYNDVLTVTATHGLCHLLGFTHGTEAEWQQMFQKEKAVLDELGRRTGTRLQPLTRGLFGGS


How the values were obtained:
FLAG-tagged YbeY (human) = target: T1, FLAG-tagged YbeY (human); test: affinity purification with mass spectrometry; SILAC, reciprocal labelling; YbeY-FLAG in doxycycline-induced HEK293T cells against uninduced cells, mitochondria isolated and lysed, FLAG M2 affinity gel, elution with FLAG peptide, LC-MS/MS
[1] = target: FLAG/Strep2-tagged p32/C1QBP (UniProt Q07021); test: affinity purification with mass spectrometry; non-SILAC; FLAG/Strep2-tagged bait in induced cells, mitochondria isolated and lysed, FLAG M2 affinity gel, elution with FLAG peptide, eluate on SDS-PAGE, visible bands excised for mass spectrometry
[2] = target: T2, FLAG-tagged YbeY (human), P58557; test: affinity purification with mass spectrometry; SILAC, reciprocal labelling; YbeY-FLAG in doxycycline-induced HEK293T cells against uninduced cells, mitochondria isolated and lysed, FLAG M2 affinity gel, elution with FLAG peptide, LC-MS/MS; details: remark: other sources report otherwise

| Molecule | binding (FLAG-tagged YbeY (human)) | also measured |
| --- | --- | --- |
| uS11m (human (endogenous in HEK293T)) | binds | – |
| mL43 (human (endogenous in HEK293T)) | binds weakly | – |
| endogenous YbeY (protein, UniProt P58557 1-167) MSLVIRNLQRVIPIRRAPLRSKIEIVRRILGVQKFDLGIICVDNKNIQHINRIYRDRNVPTDVLSFPFHEHLKAGEFPQPDFPDDYNLGDIFLGVEYIFHQCKENEDYNDVLTVTATHGLCHLLGFTHGTEAEWQQMFQKEKAVLDELGRRTGTRLQPLTRGLFGGS | – | binding [1]: no binding |
| p32/C1QBP, Q07021 74-282 (protein) LHTDGDKAFVDFLSDEIKEERKIQKHKTLPKMSGGWELELNGTEAKLVRKVAGEKITVTFNINNSIPPTFDGEEEPSQGQKVEEQEPELTSTPNFVVEVIKNDDGKKALVLDCHYPEDEVGQEDEAESDIFSIREVSFQSTGESEWKDTNYTLNTDSLDWALYDHLMDFLADRGVDNTFADELVELSTALEHQEYITFLEDLKSFVKSQ | – | binding [2]: no binding |

Results are given in words; binding and its absence hold for the method and conditions named. Binding seen in cells or lysates may run through a third protein. A yes stands for co-enrichment or nearness to the bait. Other partners may have been found. For some of these results: A no says only that the protein was not detected with the bait. For some of these results: Where a sequence is shown, tags or fusion partners need not be part of it.
